Test results from PMC10118133.
Results are given in words; binding and its absence hold for the method and conditions named. Binding seen in cells or lysates may run through a third protein. Some results given as binding are weak or reduced against the parent protein; the word gives no strength. Where a sequence is shown, tags or fusion partners need not be part of it.

Target: T1, C-terminally tandem affinity purification (TAP)-tagged Map1 (S. cerevisiae) (UniProt Q01662)
T1 sequence: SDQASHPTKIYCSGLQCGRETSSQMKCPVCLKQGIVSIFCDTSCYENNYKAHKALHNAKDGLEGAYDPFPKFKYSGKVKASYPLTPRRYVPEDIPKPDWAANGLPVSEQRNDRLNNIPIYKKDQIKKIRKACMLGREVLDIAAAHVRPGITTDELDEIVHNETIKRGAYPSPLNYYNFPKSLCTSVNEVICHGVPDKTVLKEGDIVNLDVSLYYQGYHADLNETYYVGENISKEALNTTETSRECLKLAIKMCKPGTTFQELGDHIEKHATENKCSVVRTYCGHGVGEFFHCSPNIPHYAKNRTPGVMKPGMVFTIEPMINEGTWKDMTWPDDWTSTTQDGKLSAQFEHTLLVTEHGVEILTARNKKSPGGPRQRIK
Assay: pull-down; native pullout of Map1-TAP from the resuspended ribosomal pellet of yeast lysate on IgG-coupled Dynabeads, 20 mM HEPES pH 7.5, 100 mM KOAc, 2.5 mM Mg(OAc)2, cycloheximide; TEV elution; western blot (anti-CAB, anti-uL29)

B1: ribosomal protein uL29 (protein, UniProt P0CX84 1-120)
chain: MAGVKAYELRTKSKEQLASQLVDLKKELAELKVQKLSRPSLPKIKTVRKSIACVLTVINEQQREAVRQLYKGKKYQPKDLRAKKTRALRRALTKFEASQVTEKQRKKQIAFPQRKYAIKA
binding: binds
